{"source": "PubChem BioAssay AID504793 – Drosophila RNAi Screening Center – 2011", "aim": "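Whole-genome screen for parts of the DNA damage checkpoint at G2/M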 (primary screen)", "system": "Drosophila S2R+ cells", "knock-down reagent": "long dsRNA against Drosophila genes, about 0.25 µg dsRNA per well", "timing": "4 days of dsRNA, then 4 hours of drug before read-out", "challenge": "doxorubicin 0.5 µM for 4 hours to cause double-strand breaks, in cells also given a low, harmless dose of dsRNA against nbs to sensitise the assay", "measured": "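Per-well count of mitotic cells stained for phospho-histone H3 after doxorubicin exposure, used as mitotic index; counts are raw and not normalised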", "direction": "mitotic cells: higher = more cells in mitosis, weaker G2 arrest", "call rule": "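Genes are called active only when high mitotic counts were reproduced with independent dsRNAs and mitosis was checked for delay without damage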", "calls": "active = confirmed in follow-up tests; inactive = not confirmed", "note": "The deposit covers about 23,000 reagents; shown is an unselected part of those that have a named target and a result. Over the whole deposit, 62 (0.27%) were called active. 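Calls come from follow-up tests whose scores are not deposited, so confirmed genes may have low counts here; counts are not normalised per plate.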 Raw values are not corrected between plates. Names joined by + are all predicted targets of the reagent."}
{"target gene": "CG2889", "dsRNA": "DRSC18236", "mitotic cells, replicate 1": 12, "outcome": "inactive"}
{"target gene": "Cyp4d20", "dsRNA": "DRSC08654", "mitotic cells, replicate 1": 6, "outcome": "inactive"}
{"target gene": "Cyp4d20", "dsRNA": "DRSC25418", "mitotic cells, replicate 1": 1, "outcome": "inactive"}
{"target gene": "Pde9", "dsRNA": "DRSC19746", "mitotic cells, replicate 1": 10, "outcome": "inactive"}
{"target gene": "Pde9", "dsRNA": "DRSC19874", "mitotic cells, replicate 1": 13, "outcome": "inactive"}
{"target gene": "Pde9", "dsRNA": "DRSC19875", "mitotic cells, replicate 1": 19, "outcome": "inactive"}
{"target gene": "Pde9", "dsRNA": "DRSC19876", "mitotic cells, replicate 1": 9, "outcome": "inactive"}
{"target gene": "Pde9", "dsRNA": "DRSC25304", "mitotic cells, replicate 1": 9, "outcome": "inactive"}
{"target gene": "Rpn10", "dsRNA": "DRSC11876", "mitotic cells, replicate 1": 21, "outcome": "inactive"}
{"target gene": "AstC", "dsRNA": "DRSC02403", "mitotic cells, replicate 1": 6, "outcome": "inactive"}
{"target gene": "CG3349", "dsRNA": "DRSC10359", "mitotic cells, replicate 1": 5, "outcome": "inactive"}
{"target gene": "atilla", "dsRNA": "DRSC02971", "mitotic cells, replicate 1": 5, "outcome": "inactive"}
{"target gene": "atilla", "dsRNA": "DRSC27408", "mitotic cells, replicate 1": 13, "outcome": "inactive"}
{"target gene": "CG14212", "dsRNA": "DRSC19568", "outcome": "inactive"}
{"target gene": "CG14212", "dsRNA": "DRSC27314", "mitotic cells, replicate 1": 7, "outcome": "inactive"}
{"target gene": "ash1", "dsRNA": "DRSC11325", "mitotic cells, replicate 1": 14, "outcome": "inactive"}
{"target gene": "Hel25E", "dsRNA": "DRSC03342", "mitotic cells, replicate 1": 5, "outcome": "inactive"}
{"target gene": "Hel25E", "dsRNA": "DRSC28348", "mitotic cells, replicate 1": 4, "outcome": "inactive"}
{"target gene": "dpr3", "dsRNA": "DRSC00395", "mitotic cells, replicate 1": 4, "outcome": "inactive"}
{"target gene": "dpr3", "dsRNA": "DRSC00396", "mitotic cells, replicate 1": 11, "outcome": "inactive"}
{"target gene": "Syt4", "dsRNA": "DRSC12606", "mitotic cells, replicate 1": 1, "outcome": "inactive"}
{"target gene": "rempA", "dsRNA": "DRSC00327", "mitotic cells, replicate 1": 6, "outcome": "inactive"}
{"target gene": "CG30492 (retired record) + M7BP", "dsRNA": "DRSC05053", "mitotic cells, replicate 1": 9, "outcome": "inactive"}
{"target gene": "CG30492 (retired record) + M7BP", "dsRNA": "DRSC05054", "mitotic cells, replicate 1": 7, "outcome": "inactive"}
{"target gene": "CG30492 (retired record) + M7BP", "dsRNA": "DRSC06701", "mitotic cells, replicate 1": 3, "outcome": "inactive"}
{"target gene": "CG30492 (retired record) + M7BP", "dsRNA": "DRSC06816", "mitotic cells, replicate 1": 6, "outcome": "inactive"}
{"target gene": "CG30492 (retired record) + M7BP", "dsRNA": "DRSC26905", "mitotic cells, replicate 1": 7, "outcome": "inactive"}

Already shown: an excerpt of the list.
{"target gene": "Pde9", "dsRNA": "DRSC19746", "mitotic cells, replicate 1": 10, "outcome": "inactive"}
{"target gene": "Pde9", "dsRNA": "DRSC19874", "mitotic cells, replicate 1": 13, "outcome": "inactive"}
